# Measured values taken from PMC5370183, “Kinetics of the LOV domain of ZEITLUPE determine its circadian function in Arabidopsis” (eLife, 2017).
# Amino acid sequences for entries named in this document (tags omitted).
# UniProt Q9FHW7: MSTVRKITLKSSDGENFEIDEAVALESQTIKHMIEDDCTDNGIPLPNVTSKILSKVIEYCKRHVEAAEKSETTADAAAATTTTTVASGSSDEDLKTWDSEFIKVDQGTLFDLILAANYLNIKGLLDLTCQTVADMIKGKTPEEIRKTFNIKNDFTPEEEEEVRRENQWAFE
# Numbering of substitutions follows the chain as printed. Names may count otherwise. Results are given in words; binding and its absence hold for the method and conditions named. For some of these results: Binding seen in cells or lysates may run through a third protein. Some binding calls cover weakened binding; strength is not graded here. For some of these results: Where a sequence is shown, tags or fusion partners need not be part of it.
# T1: GI-GFP (GIGANTEA) (Arabidopsis thaliana) (UniProt Q9SQI2)
# T1 sequence: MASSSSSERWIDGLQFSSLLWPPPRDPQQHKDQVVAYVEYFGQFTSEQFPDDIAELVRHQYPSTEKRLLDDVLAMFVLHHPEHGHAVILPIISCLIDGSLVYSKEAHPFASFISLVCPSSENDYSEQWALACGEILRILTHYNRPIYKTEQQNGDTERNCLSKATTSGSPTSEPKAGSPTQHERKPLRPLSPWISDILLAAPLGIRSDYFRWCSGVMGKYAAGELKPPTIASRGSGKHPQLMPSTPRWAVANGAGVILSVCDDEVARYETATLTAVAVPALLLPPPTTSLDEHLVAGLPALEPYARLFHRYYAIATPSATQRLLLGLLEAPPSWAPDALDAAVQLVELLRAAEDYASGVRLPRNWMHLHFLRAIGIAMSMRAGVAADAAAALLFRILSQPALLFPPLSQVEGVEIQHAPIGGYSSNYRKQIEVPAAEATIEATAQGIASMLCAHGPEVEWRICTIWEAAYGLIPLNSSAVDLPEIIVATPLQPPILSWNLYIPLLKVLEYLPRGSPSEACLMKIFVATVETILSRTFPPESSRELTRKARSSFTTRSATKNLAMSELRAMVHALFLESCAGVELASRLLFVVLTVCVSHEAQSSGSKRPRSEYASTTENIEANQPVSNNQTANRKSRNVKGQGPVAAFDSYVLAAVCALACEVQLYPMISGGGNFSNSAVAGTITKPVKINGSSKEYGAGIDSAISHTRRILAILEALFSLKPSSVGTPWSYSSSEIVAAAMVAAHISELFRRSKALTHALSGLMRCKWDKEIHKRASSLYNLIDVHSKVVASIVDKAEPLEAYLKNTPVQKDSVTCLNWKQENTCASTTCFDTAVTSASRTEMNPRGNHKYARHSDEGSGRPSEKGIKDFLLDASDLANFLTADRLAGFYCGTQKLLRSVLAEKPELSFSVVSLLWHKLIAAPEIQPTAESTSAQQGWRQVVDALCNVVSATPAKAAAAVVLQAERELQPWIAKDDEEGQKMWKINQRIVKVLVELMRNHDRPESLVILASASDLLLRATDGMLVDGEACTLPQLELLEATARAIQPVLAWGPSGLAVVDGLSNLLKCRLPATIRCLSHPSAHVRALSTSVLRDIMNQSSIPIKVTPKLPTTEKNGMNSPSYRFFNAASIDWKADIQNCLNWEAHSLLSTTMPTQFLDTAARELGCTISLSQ
# B1: HA-ZTL (G80R) (protein, UniProt Q94BT6 1-609)
# chain: MEWDSGSDLSADDASSLADDEEGGLFPGGGPIPYPVGNLLHTAPCGFVVTDAVEPDQPIIYVNTVFEMVTGYRAEEVLGRNCRFLQCRGPFAKRRHPLVDSMVVSEIRKCIDEGIEFQGELLNFRKDGSPLMNRLRLTPIYGDDDTITHIIGIQFFIETDIDLGPVLGSSTKEKSIDGIYSALAAGERNVSRGMCGLFQLSDEVVSMKILSRLTPRDVASVSSVCRRLYVLTKNEDLWRRVCQNAWGSETTRVLETVPGAKRLGWGRLARELTTLEAAAWRKLSVGGSVEPSRCNFSACAVGNRVVLFGGEGVNMQPMNDTFVLDLNSDYPEWQHVKVSSPPPGRWGHTLTCVNGSNLVVFGGCGQQGLLNDVFVLNLDAKPPTWREISGLAPPLPRSWHSSCTLDGTKLIVSGGCADSGVLLSDTFLLDLSIEKPVWREIPAAWTPPSRLGHTLSVYGGRKILMFGGLAKSGPLKFRSSDVFTMDLSEEEPCWRCVTGSGMPGAGNPGGVAPPPRLDHVAVNLPGGRILIFGGSVAGLHSASQLYLLDPTEDKPTWRILNIPGRPPRFAWGHGTCVVGGTRAIVLGGQTGEEWMLSELHELSLASYLT
# B2: HA-ZTL (V48I) (protein, UniProt Q94BT6 1-609)
# chain: B1 chain with V48I, R80G
# B3: HA-tagged ZTL G46S (protein, UniProt Q94BT6 1-609)
# chain: B1 chain with G46S, R80G
# B4: ZTL 29–165 I151R (domain or fragment, UniProt Q94BT6 29-165)
# chain: GGPIPYPVGNLLHTAPCGFVVTDAVEPDQPIIYVNTVFEMVTGYRAEEVLGGNCRFLQCRGPFAKRRHPLVDSMVVSEIRKCIDEGIEFQGELLNFRKDGSPLMNRLRLTPIYGDDDTITHIRGIQFFIETDIDLGP
# How the values were obtained:
# [1] = target: ARABIDOPSIS SKP1-LIKE 2 (ASK2) (Arabidopsis thaliana) (UniProt Q9FHW7); test: co-IP; transient co-expression in N. benthamiana, light or darkness; precipitated with anti-FLAG, ZTL variants detected with anti-HA antibody
# [2] = target: T1, GI-GFP (GIGANTEA) (Arabidopsis thaliana); test: co-IP; transient co-expression in N. benthamiana, continuous light or dark for 24 hr; GI-GFP precipitated with GFP antibody, ZTL variants detected with HA antibody
# [3] = target: ZTL 29–165 I151R (Arabidopsis thaliana) (UniProt Q94BT6); test: SEC; Superdex 200 10/300 analytical column in stabilizing buffer (50 mM Tris pH 7 or 50 mM Hepes pH 8 with 100 mM and 10% glycerol); apparent MW against standards; G80R in dark and light state; both purified
binder,measurement,setting,value
B1,binding,[1],binds
same,binding,[2],binds
B2,binding,[1],binds
same,binding,[2],binds weakly
B3,binding,[1],binds
same,binding,[2],binds
B4,binding,[3],no binding
